Primary screen of a compound library

Each number is a percent effect as filed.
How 0% and 100% were set is not recorded. Most values in the screen are low, and negative values occur.
The compounds are a random part of those screened.

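Whole-cell assay for inhibitors of Mycobacterium tuberculosis growth, labelled Cornell in the record; the read-out is not stated. The concentration is filed as 10 mM, unlikely as a test dose, so the dose is not known. The record gives no direction; compounds strong in two other growth screens of this library score well above the rest, so higher reads as stronger inhibition. About 53,000 compounds were tested under these conditions; 1.7% (about 900) showed 50% or more at least once.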

compound: CCCC1(CO)CCCN(c2ncnc3c2c(C)nn3C)C1 (centres undefined)
Percent Effect: -13.93

compound: CCOc1ccc(N2CCCN=C2NC(=O)c2ccccc2C)cc1
Percent Effect: -15.89

compound: COc1cccc(CCCNC(=O)N2CCC(O)(C(F)(F)F)C2)c1 (centres undefined)
Percent Effect: 46.3

compound: Cc1nccn1C1CCCN(C(=O)C2=NN(C)C(=O)CC2)C1 (centres undefined)
Percent Effect: -10.62

compound: CCCOC(=O)N1CCCn2nc(C(=O)Nc3ccccc3)cc2C1
Percent Effect: 25.41

compound: O=C(CCn1ccc2ccc(Cl)cc21)NCc1ccc(C(=O)O)cc1
Percent Effect: 28.36

compound: CC(C)c1nc(S(=O)(=O)N(C)c2cc(F)ccc2F)c[nH]1
Percent Effect: 0.8403

compound: CCOCCNc1nc(C2CCCC2)nc2c1cnn2C
Percent Effect: 15.61

compound: COCc1ccc(C(=O)N2CCC(c3cc4nccnc4[nH]3)CC2)cc1
Percent Effect: 3.156

compound: O=S1(=O)CCC(c2nc(-c3cccc(Br)c3)no2)C1 (centres undefined)
Percent Effect: 16.81

compound: CCc1ccc(CN2CCCn3c(nc(Cn4ccnc4)cc3=O)C2)o1.O=C(O)C(F)(F)F.O=C(O)C(F)(F)F
Percent Effect: 8.812

compound: Cc1cc(NCC(=O)NCC(F)(F)F)nc(-c2ccncc2)n1
Percent Effect: -3.871

compound: COc1ccc(CCC(=O)N2CCN(c3nc(C)ns3)CC2)cc1
Percent Effect: -7.607

compound: [H][C@@]12C[C@@H](c3noc(C)n3)O[C@]1([H])CN(Cc1scnc1C)C2
Percent Effect: 14.59

compound: Cc1cc(NC(=O)Cn2ccc(-c3ccc4c(c3)OCO4)n2)n(C)n1
Percent Effect: -5.789

compound: Cc1cc(C)n(CC2CCCN2C(=O)Cc2c(C)noc2C)n1 (centres undefined)
Percent Effect: 0.4016

compound: [H][C@@]12CCN(c3cc(OC)ncn3)C[C@]1(COc1nccc(C)n1)CCO2
Percent Effect: -18.29

compound: CC(C)CCn1cc(C(=O)NC2CCS(=O)(=O)C2)c2ccccc2c1=O (centres undefined)
Percent Effect: 15.03

compound: [H][C@]12CN(C(=O)OCCOC)CCN1C[C@@H](CO)[C@@H]2c1ccccc1
Percent Effect: 1.048

compound: COc1ccc(-c2c(C(C)C)nn3c(=N)c(C#N)n[nH]c23)cc1
Percent Effect: 39.69

compound: Cc1ccc2nc(C)c(C)c(C(=O)N[C@H]3COC[C@@H]3N3CCCC3)c2c1
Percent Effect: 25.47

compound: COCC1CCCN(C(=O)c2ccc(NC(=O)CC(C)C)c(C)c2)C1 (centres undefined)
Percent Effect: -1.652

compound: CC(=O)N1CCN(C(=O)c2cc(-n3cnnn3)ccc2Cl)CC1
Percent Effect: -8.629

compound: CCOc1cc(/C=C/c2ncc(C(=O)O)s2)cc(Br)c1O
Percent Effect: -18.66

compound: Cc1ccc2c(n1)N(CCN(C)C)CCN(C(=O)c1cscn1)C2.O=C(O)C(F)(F)F.O=C(O)C(F)(F)F
Percent Effect: 8.4

compound: CC(C)C1CN(C(=O)c2cn3ccccc3n2)CCCN1CC1CC1 (centres undefined)
Percent Effect: 0.6458

compound: CCc1cnc(C)nc1NC(CC)c1cnn(C)c1 (centres undefined)
Percent Effect: -25.02

compound: Cc1cccnc1N1CC2(CCN(Cc3cnn(C)c3)C2)C1.O=C(O)C(F)(F)F.O=C(O)C(F)(F)F
Percent Effect: 29.02

compound: [H][C@]12CCC[C@@]1(COC)CN(C(=O)COC)C2
Percent Effect: 12.63

compound: Cc1oc(-c2cccs2)nc1C(=O)N(C)C1(C#N)CCC1
Percent Effect: 17.43

compound: CC(C)n1cnnc1C1CCCN(S(=O)(=O)CCCC#N)C1 (centres undefined)
Percent Effect: -13.6

compound: CC(C)CN1CCc2[nH]cnc2C12CCN(C(=O)c1ccnn1C)CC2
Percent Effect: 30.92

compound: COCC(=O)N[C@H](C)c1onc(-c2ccccc2)c1C(=O)O
Percent Effect: 14.17

compound: Cc1csc(N2CCN(C(=O)Cc3ccsc3)CC2)n1
Percent Effect: -16.86

compound: CCCN1CC2(CCN(c3ncc(F)cn3)CC2)CC1C(=O)O (centres undefined)
Percent Effect: 13.85

compound: O=C(O)C(F)(F)F.[H][C@@]12CN(Cc3ccncc3)CC[C@]1([H])CN(c1ccc(C)nn1)C2
Percent Effect: -19.26

compound: [H][C@]12CC[C@]([H])(CN(C(=O)c3ccc(Cl)cc3)C1)N(CCOC)C2
Percent Effect: -36.32

compound: COc1ccc(-n2nnnc2C2(NCc3ccco3)CCCCC2)cc1
Percent Effect: 15.99

compound: CC(NCCCC#N)c1ccc(-c2ccncc2)cc1 (centres undefined)
Percent Effect: 21.7

compound: CCC(CCN)n1ccc(C(F)(F)F)n1 (centres undefined)
Percent Effect: -25.88

compound: N#Cc1c(CN2CCCC2Cn2cncn2)cn2ccccc12 (centres undefined)
Percent Effect: 21.51

compound: CCN1CCN(C(=O)c2c[nH]c(C(C)C)n2)c2ccccc21
Percent Effect: 33.13

compound: Cc1cc(F)ccc1CCNC(=O)NCC(C)N1CCOCC1 (centres undefined)
Percent Effect: -4.783

compound: [H][C@@]12CCN(C(=O)c3ccsc3)C[C@]1(c1nc(C)no1)CCO2
Percent Effect: 20.9

compound: CCSc1ccc(NC(=O)NC2CCc3[nH]ncc3C2)cn1 (centres undefined)
Percent Effect: 3.081

compound: O=C(CCc1nnc(-c2ccccc2)o1)N1CCCC1c1ccccn1 (centres undefined)
Percent Effect: 15.42

compound: COCCN1CCCC2(CCN(Cc3noc(C4CCCC4)n3)C2)C1=O (centres undefined)
Percent Effect: -0.3385

compound: O=C(OCCNc1ncccn1)c1ccc(Cl)s1
Percent Effect: -14.73

compound: O=C(Cn1ccc2ccc(F)cc21)NCc1ccc(C(=O)O)cc1
Percent Effect: -8.608

compound: Cc1nn(C)c(N2CCOCC2)c1CNCc1cccnc1
Percent Effect: -15.05

The first 3 entries again:

compound,Percent Effect
CCCC1(CO)CCCN(c2ncnc3c2c(C)nn3C)C1 (centres undefined),-13.93
CCOc1ccc(N2CCCN=C2NC(=O)c2ccccc2C)cc1,-15.89
COc1cccc(CCCNC(=O)N2CCC(O)(C(F)(F)F)C2)c1 (centres undefined),46.3

Data taken from ChEMBL document CHEMBL3988442, “University of Dundee, Small-Polar-MMV Screening Library” (2021).